In PubChem BioAssay AID2685 (National Center for Advancing Translational Sciences (NCATS), 2010):
The list shows a part of the results. These are further read-outs of the screen, such as a control signal, another cell line or another target. No call is given for them. Most of these compounds were active or inconclusive in the main read-out, so they are no random draw. Potencies come from curve fits of mixed quality, noted in brackets.

Experiment: qHTS Assay for Lipid Storage Modulators in Drosophila S3 Cells;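 for cell number change: cells counted by Cell Tracker Red CMTPX staining in the red channel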
Conditions: BODIPY lipid droplet fluorescence, 18-24 h; for cell number change: measured here: cell count max response, cells fed with added oleic acid
How it was run: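 Drosophila S3 cells loaded with oleic acid (400 uM, as added) and compounds at several concentrations; lipid droplets imaged by 488-nm laser-scanning cytometry, 500–530 nm intensity and object ratio to cell channel. Percent activity normalized to 20 uM Triacsin C.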

[1] = measured here: cell number channel AC50, cells fed with added oleic acid
[2] = measured here: lipid fluorescence (Fed channel) AC50, cells fed with added oleic acid

CS(=O)(=O)c1cccc(C(=O)Nc2ccc(S(=O)(=O)N3CCCCC3)cc2)c1
cell number change: 55.8%
AC50 [1]: 14.6 µM [rising, partial curve]

CCCCN(C(=O)c1ccc(N2CCCC2=O)cc1)c1c(N)n(Cc2ccccc2)c(=O)[nH]c1=O
cell number change: -5.16%
AC50 [2]: 0.58 µM [falling, full curve]

CCC(C)(C)C1CCc2c(sc(N)c2C(N)=O)C1 (configuration not stated)
cell number change: -19%
AC50 [2]: 13 µM [falling, partial curve, poor fit]

Cc1nc2c3ccccc3n(CCN3CCCCC3)c2s1
cell number change: 31.3%
AC50 [1]: 16.4 µM [rising, single point]

COc1cc2ccccc2cc1C(=O)N(CCN(C)C)c1nc2c(C)cccc2s1
cell number change: 37%

Cc1ccc(S(=O)(=O)N(C)c2ccccc2C(=O)Nc2ccc(F)cc2F)cc1
cell number change: -12.9%
AC50 [2]: 29.1 µM [falling, single point]

C=CCOc1ccc(CNc2nn[nH]n2)cc1OC
cell number change: 39%
AC50 [1]: 16.4 µM [rising, partial curve, poor fit]

Nc1nc2ccc(C(=O)NC3CCCCC3)cc2s1
cell number change: -2.11%
AC50 [1]: 6.51 µM [rising, single point]
AC50 [2]: 0.517 µM [falling, single point]

NC(=O)N/N=C/c1c(O)ccc2oc3c(c12)CCCC3
cell number change: 15.9%
AC50 [2]: 7.31 µM [rising, partial curve]

CC(C)c1ccc(OCC(O)CN2CCCC2)cc1 (configuration not stated)
AC50 [2]: 29.1 µM [rising, single point]

O=C(NC(=S)NNC(=O)c1ccco1)c1ccc(Br)cc1
cell number change: -2.14%
AC50 [2]: 0.00461 µM [falling, full curve, poor fit]

C=C(C)C1Cc2c(C)nn(-c3cccc4ccccc34)c2C1 (configuration not stated)
AC50 [1]: 0.731 µM [rising, partial curve, poor fit]

O=C(CN1CCCCC1)Nc1cc(Cl)ccc1Cl
cell number change: -47.4%
AC50 [1]: 2.31 µM [falling, full curve]
AC50 [2]: 0.92 µM [falling, full curve]

O=C(N/N=C/c1ccccn1)c1cc(-c2ccc(Cl)s2)[nH]n1
cell number change: 20%

O=C(c1ccc(Br)o1)N(c1ccc(Br)cc1)C1C=CS(=O)(=O)C1 (configuration not stated)
AC50 [1]: 2.59 µM [rising, partial curve]
AC50 [2]: 0.164 µM [rising, full curve]

CCOC(=O)c1c(C)nc2ccc(Cl)cc2c1-c1ccccc1
cell number change: 43.4%
AC50 [1]: 7.31 µM [rising, partial curve, poor fit]
AC50 [2]: 7.31 µM [rising, partial curve]

COC(=O)c1c(NC(=O)CSc2nnc(-c3ccco3)n2Cc2ccccc2)sc(C)c1C
cell number change: 81.1%
AC50 [1]: 0.411 µM [rising, full curve]

C[C@]12C(=O)N(c3ccc(Cl)cc3)C(=O)N1[C@H]1c3ccccc3OC[C@@H]1[C@H]2c1ccccc1
cell number change: 24.9%
AC50 [2]: 0.0231 µM [rising, full curve]

Clc1ccc(CN(Cc2ccccc2)C(c2cccs2)c2nnnn2C2CCCC2)cc1 (configuration not stated)
cell number change: -50.2%
AC50 [1]: 16.4 µM [falling, partial curve, poor fit]
AC50 [2]: 23.1 µM [falling, single point]

CCOc1ccc(C(=O)NCc2ccco2)cc1
cell number change: 57%
AC50 [1]: 16.4 µM [rising, partial curve]
AC50 [2]: 20.6 µM [rising, partial curve]

Cc1ccc(S(=O)(=O)NCC(=O)N(CC(=O)NCc2ccco2)Cc2ccc(F)cc2)cc1
cell number change: -32.9%
AC50 [1]: 1.64 µM [falling, full curve, poor fit]

CCOC(=O)c1ccccc1NC(=O)CCNC(=O)Cn1cnc2ccccc2c1=O
cell number change: -11.8%
AC50 [1]: 0.146 µM [falling, full curve, poor fit]
AC50 [2]: 7.31 µM [rising, partial curve]

COc1ccc(NS(=O)(=O)c2cccc(C(=O)N3CCCCCC3)c2)cc1
cell number change: -50%
AC50 [1]: 6.51 µM [rising, partial curve, poor fit]

COc1ccc(/C=C/C(=O)NC(=S)N2CCCC(C(N)=O)C2)cc1 (configuration not stated)
cell number change: 9.91%

O=C(Nc1ccc(Br)cc1)c1ccc(N2C(=O)C3CC=C(Cl)CC3C2=O)cc1 (configuration not stated)
cell number change: 19.5%
AC50 [1]: 0.00517 µM [falling, full curve, poor fit]

CCCOc1ccc(CC(=O)NNC(=S)Nc2ccccc2)cc1Br
cell number change: -38.1%
AC50 [1]: 9.2 µM [falling, partial curve, poor fit]

Cc1csc(CNC(=O)c2ccc(OC3CCN(CCc4ccccc4)CC3)cc2)n1
cell number change: -2.06%

COC(=O)c1cc(N=Nc2c(C)[nH]c3ccccc23)cc(C(=O)OC)c1
cell number change: 3.09%
AC50 [2]: 1.84 µM [rising, partial curve, poor fit]

COc1ccccc1-c1cc(C(=O)Nc2cc(C)on2)no1
cell number change: 18.3%
AC50 [2]: 29.1 µM [rising, single point]

COc1cc2c(C(=O)NCc3ccccn3)cn(C)c(=O)c2cc1OC
cell number change: 13.3%
AC50 [2]: 0.92 µM [rising, full curve, poor fit]

CCc1ccccc1NC(=S)N(CCN1CCOCC1)Cc1ccccc1F
AC50 [1]: 0.146 µM [rising, single point]

O=C(CN1C(=O)C2CCCCN2C(=O)c2ccccc21)N1CCCc2ccccc21 (configuration not stated)
cell number change: 87.9%
AC50 [1]: 11.6 µM [rising, partial curve]
AC50 [2]: 0.164 µM [rising, full curve, poor fit]

CC(=O)Nc1ccc(NS(=O)(=O)c2cccc3nonc23)cc1
cell number change: 8.87%

COc1ccc(Cl)cc1NC(=O)C(=O)NC1CCCCCC1
cell number change: -40.4%
AC50 [1]: 3.66 µM [falling, full curve, poor fit]
AC50 [2]: 23.1 µM [falling, partial curve]

Cn1nccc1C(=O)NC1CCCc2c1cnn2-c1ccccc1F (configuration not stated)
cell number change: -37.4%
AC50 [1]: 1.16 µM [falling, full curve, poor fit]

Cc1ccc(NC(=O)N2CCN(C/C=C/c3ccccc3)CC2)cc1
cell number change: 32.4%

Cc1cc(C)cc(NC(=O)NNC(=O)c2cc3occc3[nH]2)c1
cell number change: 28.6%

O=C(Nc1cccc(S(=O)(=O)N2CCCCC2)c1)C1CC(=O)N(Cc2ccccc2)C1 (configuration not stated)
cell number change: -9.02%
AC50 [2]: 23.1 µM [falling, partial curve]

Cc1cc(N/N=C2\CC(C)CC(C)(C)C2)nc2ccccc12 (configuration not stated)
cell number change: 7.69%
AC50 [2]: 6.51 µM [rising, single point]

C=CCNc1nc(-c2ccc(Cl)cc2)cs1
cell number change: -38.8%
AC50 [1]: 29.1 µM [falling, single point]

CC(=O)c1ccc(NC(=O)c2cc(=O)[nH]c3ccccc23)cc1
cell number change: 39.3%
AC50 [1]: 3.26 µM [rising, partial curve]

O=C1C=CC(=O)N1Nc1ccc(Br)cc1
cell number change: 0.494%
AC50 [1]: 0.651 µM [falling, single point]
AC50 [2]: 1.84 µM [falling, partial curve]

CCN(CC)C(=O)CN(c1cc2c(cc1OC)oc1ccccc12)S(=O)(=O)c1ccc(C)cc1
cell number change: -3.31%
AC50 [2]: 2.91 µM [rising, full curve, poor fit]

CC(=Nc1ccc(C)c(C)c1)C1=C(O)CCC1=O
cell number change: 6.17%
AC50 [2]: 2.91 µM [falling, partial curve, poor fit]

C=C1C(=O)C=C2CN(C(=O)c3ccccc3)[C@@](Cc3ccc(F)cc3)(C(=O)OC)[C@@H]12
cell number change: -89.7%
AC50 [1]: 20.6 µM [falling, partial curve]
AC50 [2]: 2.59 µM [falling, full curve]

CCCn1c(=O)c2ccccc2n2c(SCC(=O)NCc3cccs3)nnc12
cell number change: 63.2%
AC50 [1]: 14.6 µM [rising, partial curve]
AC50 [2]: 6.51 µM [rising, partial curve, poor fit]

CCN1CCCc2cc(CN(CCN3CCOCC3)C(=S)Nc3ccc(OC)c(Cl)c3)ccc21
cell number change: 1.68%
AC50 [1]: 0.0103 µM [rising, full curve, poor fit]
AC50 [2]: 0.517 µM [rising, partial curve, poor fit]

Cc1ccc(-c2nnn(CC(=O)N3CCN(c4nc5ccccc5s4)CC3)n2)cc1
cell number change: 2.75%
AC50 [2]: 4.61 µM [rising, single point]

CN(CC(=O)Nc1ccc(Cl)cc1)S(=O)(=O)c1ccc2c(c1)n(C)c(=O)c(=O)n2C
cell number change: 11.8%

CCOc1nc(NCc2ccco2)nc(Nc2ccc(OC)cc2)n1
cell number change: 12.7%
AC50 [2]: 5.8 µM [rising, full curve]

CCOc1ccc(/C=N/NC(=O)NC23CC4CC(CC(C4)C2)C3)cc1O
cell number change: -43.1%
AC50 [1]: 0.231 µM [falling, partial curve, poor fit]
AC50 [2]: 0.731 µM [falling, full curve]

CCc1ccc(C(=O)COC(=O)CNC(=O)CNS(=O)(=O)c2ccccc2)cc1
cell number change: -2.64%
AC50 [2]: 4.11 µM [rising, single point]

COc1ccc(N(Cc2ccccc2)C(=O)CSc2nnc(Cn3nnc4ccccc43)o2)cc1
cell number change: 13.9%
AC50 [1]: 1.84 µM [rising, single point]
AC50 [2]: 5.17 µM [rising, partial curve]

Cc1cc(NCCOCCO)n2c(nc3ccccc32)c1C#N
cell number change: 19.4%

CC(C)c1ccc(S(=O)(=O)N2CCC(C(=O)NCc3ccco3)CC2)cc1
cell number change: 88.4%

CC(C)C(=O)N1CCN(c2ccc(NC(=O)c3ccco3)cc2Cl)CC1
cell number change: -8.57%

NS(=O)(=O)c1ccc(CCNC(=O)COC(=O)CC(c2ccccc2)c2ccccc2)cc1
cell number change: 6.86%
AC50 [2]: 1.16 µM [falling, partial curve, poor fit]

Cc1ccc(Cl)cc1N(CC(=O)NC(C)c1ccccc1)S(C)(=O)=O (configuration not stated)
cell number change: 31.6%
AC50 [1]: 0.0058 µM [rising, full curve, poor fit]
AC50 [2]: 23.1 µM [rising, single point]
